Experimental findings from PMC5013666 are described below.

Sequences of proteins named here, by UniProt entry; tags and fusion partners are left off. A change or cut given only in a name is not applied to a line headed by its entry. Residues count along the entry.
UniProt P06213, residues 763-1382: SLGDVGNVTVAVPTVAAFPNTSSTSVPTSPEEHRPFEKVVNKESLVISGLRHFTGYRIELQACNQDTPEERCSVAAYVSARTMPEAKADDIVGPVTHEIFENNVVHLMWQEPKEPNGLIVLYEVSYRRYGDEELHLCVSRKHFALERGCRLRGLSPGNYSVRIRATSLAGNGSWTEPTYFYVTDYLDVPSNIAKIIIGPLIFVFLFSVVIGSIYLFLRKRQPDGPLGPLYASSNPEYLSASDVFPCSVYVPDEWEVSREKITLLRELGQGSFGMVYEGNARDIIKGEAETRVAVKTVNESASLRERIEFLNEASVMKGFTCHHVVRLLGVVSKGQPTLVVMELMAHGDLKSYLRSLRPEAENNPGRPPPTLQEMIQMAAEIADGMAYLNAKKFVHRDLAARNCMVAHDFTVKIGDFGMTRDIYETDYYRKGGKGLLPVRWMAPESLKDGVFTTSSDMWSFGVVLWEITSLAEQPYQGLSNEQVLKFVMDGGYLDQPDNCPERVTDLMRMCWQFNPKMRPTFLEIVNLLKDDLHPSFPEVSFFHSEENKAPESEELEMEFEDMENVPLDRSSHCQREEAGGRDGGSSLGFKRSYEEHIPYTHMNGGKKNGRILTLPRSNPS
UniProt Q8TCQ1: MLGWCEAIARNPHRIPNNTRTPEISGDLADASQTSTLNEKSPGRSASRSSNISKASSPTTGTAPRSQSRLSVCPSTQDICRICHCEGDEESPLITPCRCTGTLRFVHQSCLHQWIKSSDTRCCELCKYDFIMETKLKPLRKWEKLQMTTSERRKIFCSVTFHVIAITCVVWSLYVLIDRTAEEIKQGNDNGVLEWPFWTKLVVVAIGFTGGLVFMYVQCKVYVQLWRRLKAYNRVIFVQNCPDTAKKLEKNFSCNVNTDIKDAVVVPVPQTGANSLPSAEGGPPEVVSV

These are yes or no findings as the source states them, for the method shown. In cells and extracts the contact can be indirect. A result given as binding can be weak or reduced; the word gives no strength.

In the assay the target is INSRβ (insulin receptor beta subunit), endogenous (human (endogenous in HeLa and HepG2)) (UniProt P06213). Description: co-IP; HeLa or HepG2 cells, untransfected or transfected with MARCH1 or MARCH1 deletion constructs, 5 μM MG132 overnight; IP Lysis buffer (Pierce); immunoprecipitation with IgG or anti-INSRβ antibody and protein G-agarose beads; immunoblot.

For the substance “MARCH1ΔC-Term-YFP (from UniProt Q8TCQ1) (enzyme)”, the binding result is recorded as “binds”.

With “MARCH1ΔRING-YFP (from UniProt Q8TCQ1) (enzyme)”, the binding result is “binds”.
